Data as given in PubChem BioAssay AID1159584 (Peter MacCallum Cancer Centre, 2016)

Test: 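Genes whose loss is lethal only together with E-cadherin loss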 (primary screen)
Cell system: human MCF10A breast epithelial cells, parental and CDH1-null
Reagents: siRNA against human genes
Read-out: 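ATP luminescence (CellTiter-Glo) viability per line relative to mean mock wells over all plates, and the ratio of CDH1-null to parental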
Direction: CDH1-null / parental viability ratio: higher = CDH1-null cells survive relatively better than parental
Here is a random part of about 18,000 reagents. Further read-outs or replicates are left out here. Not stated in the record: the amount of reagent, the time to read-out.

no.	Gene	CDH1-null / parental viability ratio
1	ARRDC2	1.1
2	CALB2	1.03
3	RNF41	0.71
4	GPN2	1.24
5	GAGE6	1.27
6	GOLGA8F	1.02
7	MAB21L2	0.91
8	ZBTB48	1.09
9	ZNF451	1.11
10	RAP1A	0.87
11	THAP12	1
12	YIF1A	0.57
13	TRMT11	1.08
14	SLC25A14	1.26
15	PRPF8	1.56
16	RLN2	0.99
17	MRAP2	0.97
18	TSPO2	0.95
19	MYLK2	1.09
20	TAS2R42	0.86
21	HMGCL	0.87
22	TCEAL4	1.37
23	RTKN	0.71
24	SLC24A4	0.97
25	PCCA	0.8
26	MTARC2	0.82
27	TMLHE	1.04
28	ALDH3B1	0.94
29	NR4A3	1.43
30	TMEM255A	1.05
31	TDRD12	0.86
32	RSPH9	0.98
33	TWNK	0.96
34	LRRTM3	1.18
35	SMCO3	1.23
36	TRIB1	0.92
37	WDR83OS	0.96
38	AXL	0.81
39	ARPP21	0.87
40	PRKD3	1.19
41	CRK	0.62
42	ADRM1	0.96
43	GLCE	1.15
44	FEN1	0.95
45	POMP	0.95
46	OR10H2	1.13

Entries above whose target name starts with Z or z (2):
Gene	CDH1-null / parental viability ratio
ZBTB48	1.09
ZNF451	1.11
